Results deposited as PubChem BioAssay AID504804 (Drosophila RNAi Screening Center, 2011)
In all, the deposit lists about 19,000 reagents; shown is a random part of those that have a named target and a result. Of all reagents, 47 (0.25%) got an active call. 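Signals are raw, not normalised; exact z-scores behind calls not deposited; actives needed confirmation, so some wells reaching 2 SD are inactive.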 Entries without a mark were called inactive.

Purpose: 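Fly genes whose loss lessens doxorubicin-driven cell death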 (primary screen)
Cells: Drosophila Kc cells
Reagents: long dsRNA against Drosophila genes, 0.5 µg dsRNA per well
Timing: 96 h (48 h knock-down, then 48 h drug)
Conditions: doxorubicin 5 µg/ml for 48 h, added 48 h after dsRNA
Measured: 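Luminescent ATP counts per replicate, not normalised, reflecting viable cells after 48 h dsRNA knock-down followed by 48 h of 5 µg/ml doxorubicin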
Direction: raw ATP luminescence: higher = more viable cells, protection from doxorubicin
Rule for the call: 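z-score of 2 or more over plate mean in both duplicates, retained only when retests and separate dsRNAs confirm the protection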

For CG17698 [DRSC11907], the values are raw ATP luminescence, replicate 1 = 73877; raw ATP luminescence, replicate 2 = 81163.
With knock-down of Ufd4 (Ubiquitin fusion-degradation 4-like) [DRSC02871] the results were raw ATP luminescence, replicate 1 = 39987; raw ATP luminescence, replicate 2 = 71757.
CG15365 [DRSC18038] showed raw ATP luminescence, replicate 1 = 9330; raw ATP luminescence, replicate 2 = 9860.
Cdk8 (Cyclin-dependent kinase 8) [DRSC11113] gave raw ATP luminescence, replicate 1 = 46437; raw ATP luminescence, replicate 2 = 34957.
CG9547 [DRSC03260] scored raw ATP luminescence, replicate 1 = 1.37e5; raw ATP luminescence, replicate 2 = 87943.
After knock-down of Sin3A [DRSC07552] the results were raw ATP luminescence, replicate 1 = 54080; raw ATP luminescence, replicate 2 = 50580.
Silencing of sac (sterile affecting ciliogenesis) [DRSC12237] resulted in: raw ATP luminescence, replicate 1 = 83603; raw ATP luminescence, replicate 2 = 65137.
After knock-down of stmA (stambha A) [DRSC05120] the results were raw ATP luminescence, replicate 1 = 84940; raw ATP luminescence, replicate 2 = 90527.
stmA (stambha A) [DRSC07593] showed raw ATP luminescence, replicate 1 = 64037; raw ATP luminescence, replicate 2 = 65533.
CG3793 [DRSC01982] gave raw ATP luminescence, replicate 1 = 97857; raw ATP luminescence, replicate 2 = 58237.
Depletion of CG43996 [DRSC19456] resulted in: raw ATP luminescence, replicate 1 = 3.15e5; raw ATP luminescence, replicate 2 = 2.96e5.
Against CG43996 [DRSC19457], the values are raw ATP luminescence, replicate 1 = 3.45e5; raw ATP luminescence, replicate 2 = 3.18e5.
CG13365 [DRSC17899] showed raw ATP luminescence, replicate 1 = 72420; raw ATP luminescence, replicate 2 = 40030.
Against Phyhd1 (Phytanoyl-CoA dioxygenase domain containing 1) [DRSC14911], the values are raw ATP luminescence, replicate 1 = 53133; raw ATP luminescence, replicate 2 = 59043.
With knock-down of sqz (squeeze) [DRSC16980], the screen gave raw ATP luminescence, replicate 1 = 76440; raw ATP luminescence, replicate 2 = 70890.
upd1 (unpaired 1) [DRSC20358] showed raw ATP luminescence, replicate 1 = 3.50e5; raw ATP luminescence, replicate 2 = 3.57e5.
Against Cpr67Fa2 (Cuticular protein 67Fa2) [DRSC10315], the entry reads raw ATP luminescence, replicate 1 = 78653; raw ATP luminescence, replicate 2 = 77700.
For CG9107 [DRSC03138] the deposit lists raw ATP luminescence, replicate 1 = 1.04e5; raw ATP luminescence, replicate 2 = 87363.
For CG14423 [DRSC17920] the deposit lists raw ATP luminescence, replicate 1 = 57370; raw ATP luminescence, replicate 2 = 47720.
Against CG14017 [DRSC02348], the values are raw ATP luminescence, replicate 1 = 20673; raw ATP luminescence, replicate 2 = 22417.
Depletion of CG14543 [DRSC14887] gave: raw ATP luminescence, replicate 1 = 57750; raw ATP luminescence, replicate 2 = 42250.
After knock-down of CG14694 [DRSC14917], the screen gave raw ATP luminescence, replicate 1 = 56197; raw ATP luminescence, replicate 2 = 57940.
Against CG3817 [DRSC15515], the entry reads raw ATP luminescence, replicate 1 = 56817; raw ATP luminescence, replicate 2 = 34927.
After knock-down of CG13126 [DRSC02222], the screen gave raw ATP luminescence, replicate 1 = 44863; raw ATP luminescence, replicate 2 = 49323.
Depletion of CG33267 [DRSC09120] came out at: raw ATP luminescence, replicate 1 = 1.90e5; raw ATP luminescence, replicate 2 = 1.85e5.
CG7724 [DRSC10905] showed raw ATP luminescence, replicate 1 = 20310; raw ATP luminescence, replicate 2 = 20260.
With knock-down of Aldh7A1 (Aldehyde dehydrogenase 7 family member A1) [DRSC11083], the record shows raw ATP luminescence, replicate 1 = 25833; raw ATP luminescence, replicate 2 = 24470.
mmm (missing minor mitochondria) [DRSC10208] scored raw ATP luminescence, replicate 1 = 80507; raw ATP luminescence, replicate 2 = 74580.

2 consecutive records already listed:
sqz (squeeze) [DRSC16980] — raw ATP luminescence, replicate 1: 76440; raw ATP luminescence, replicate 2: 70890
upd1 (unpaired 1) [DRSC20358] — raw ATP luminescence, replicate 1: 3.50e5; raw ATP luminescence, replicate 2: 3.57e5
